Data as given in PubChem BioAssay AID1259308 (NCATS, 2017)
Test: 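Candidate targets for better recombinant protein yield in mammalian cells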 (primary screen). Cell system: human HEK293 embryonic kidney cells stably expressing firefly luciferase (HEK-CMV-Luc2-Hygro). Knock-down reagent: single siRNA against human genes, 0.8 pmol siRNA per well. Duration: 72 h. Measurement: 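Reporter luminescence and viable-cell signal on separate replicate plates, given as percent of non-targeting control and median/MAD z-scores, plus per-cell luciferase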. Direction: total luciferase, z-score: higher = more reporter protein produced. Rule for the call: 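Active when the median/MAD z-score for overall luciferase is greater than 3; a gene was taken forward for validation with new siRNAs if at least two of its three siRNAs passed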. Meaning of the calls: active = raised luciferase; inactive = no rise.
In all, the deposit lists about 59,000 reagents; shown is a random part of them. Over the whole deposit, about 1,510 (2.6%) were called active. 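Calls use total luciferase alone and ignore viability, so some active siRNAs may act by altering cell number.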 A number with no mark means an inactive call. Reagents against one gene are numbered here. Not all columns of the deposit are shown.

total luciferase, z-score, by target gene and reagent
ZNF341 (GeneID 84905): #1 0.707; #2 0.306; #3 -0.34
AGXT2 (GeneID 64902): #1 0.000382; #2 0.785; #3 0.455
TAF7L (GeneID 54457): #1 -2.11; #2 -0.439; #3 -0.586
DNAJA1 (GeneID 3301): #1 -1.19; #2 -0.268; #3 0.868
SLC22A5 (GeneID 6584): #1 1.13; #2 -1.65; #3 -2.29
TBL1X (GeneID 6907): #1 0.345; #2 -0.996; #3 -0.171
STXBP4 (GeneID 252983): #1 -0.254; #2 1.23; #3 -1.26
PLAC1 (GeneID 10761): #1 -1.19; #2 0.744; #3 0.0966
OSGIN1 (GeneID 29948): #1 0.108; #2 -0.235; #3 -0.155
QRFP (GeneID 347148): #1 -1.17; #2 -0.33; #3 0.187
ADHFE1 (GeneID 137872): #1 -0.831; #2 0.16; #3 -0.54
PRR5 (GeneID 55615): #1 -0.508; #2 -1.19; #3 -0.139
RTCA (GeneID 8634): #1 0.989; #2 1.5; #3 0.28

Reformatted: results already given
SLC22A5 (GeneID 6584) #3 — total luciferase, z-score: -2.29
TBL1X (GeneID 6907) #1 — total luciferase, z-score: 0.345
TBL1X (GeneID 6907) #2 — total luciferase, z-score: -0.996
TBL1X (GeneID 6907) #3 — total luciferase, z-score: -0.171
STXBP4 (GeneID 252983) #1 — total luciferase, z-score: -0.254
STXBP4 (GeneID 252983) #2 — total luciferase, z-score: 1.23
